The supplement of paper PMC8728848
The other results are listed elsewhere or left out.

How the values were obtained:
Assay in all cases: glycan array binding signal (z-score within array); higher = stronger binding
Details in all cases: glycan notation: IUPAC condensed, linker removed
[1] = biological target: Fuc(a1-2)[Gal(a1-3)]Gal(b1-4)GlcNAc(b1-2)Man(a1-3)[Fuc(a1-2)[Gal(a1-3)]Gal(b1-4)GlcNAc(b1-2)Man(a1-6)]Man(b1-4)GlcNAc(b1-4)GlcNAc
Outline: (§1)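 Glycan array binding is given as a within-array Z-score, which can be read as non-binding when negative. The arrays, 3228 of them, came from the Consortium for Functional Glycomics database and were retained only where the protein sequence was available. Z-scores were averaged across arrays of the same protein sequence at different concentrations or buffers and across linkers.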

[2] = biological target: Fuc(a1-2)[Gal(a1-3)]Gal(b1-4)GlcNAc(b1-2)Man(a1-3)[Fuc(a1-2)[Gal(a1-3)]Gal(b1-4)GlcNAc(b1-2)Man(a1-6)]Man(b1-4)GlcNAc(b1-4)[Fuc(a1-6)]GlcNAc
Outline: as §1

[3] = biological target: Fuc(a1-2)[Gal(a1-3)]Gal(b1-4)GlcNAc(b1-3)GalNAc
Outline: as §1

[4] = biological target: Fuc(a1-2)[Gal(a1-3)]Gal(b1-4)GlcNAc(b1-3)[Fuc(a1-2)[Gal(a1-3)]Gal(b1-4)GlcNAc(b1-6)]GalNAc
Outline: as §1

[5] = biological target: Fuc(a1-2)[Gal(a1-3)]Gal(b1-4)GlcNAc(b1-6)GalNAc
Outline: as §1

[6] = biological target: Fuc(a1-2)[Gal(a1-3)]Gal(b1-4)[Fuc(a1-3)]Glc
Outline: as §1

[7] = biological target: Fuc(a1-2)[Gal(a1-3)]Gal(b1-4)[Fuc(a1-3)]GlcNAc
Outline: as §1

[8] = biological target: Fuc(a1-2)[Gal(a1-3)]Gal(b1-4)[Fuc(a1-3)]GlcNAc(b1-3)GalNAc
Outline: as §1

[9] = biological target: Fuc(a1-2)[Gal(a1-4)]Gal(b1-4)GlcNAc
Outline: as §1

[10] = biological target: Fuc(a1-2)[GalNAc(a1-3)]Gal
Outline: as §1

[11] = biological target: Fuc(a1-2)[GalNAc(a1-3)]Gal(b1-3)GalNAc(a1-3)[Fuc(a1-2)]Gal(b1-4)GlcNAc
Outline: as §1

[12] = biological target: Fuc(a1-2)[GalNAc(a1-3)]Gal(b1-3)GalNAc(b1-3)Gal(a1-4)Gal(b1-4)Glc
Outline: as §1

[13] = biological target: Fuc(a1-2)[GalNAc(a1-3)]Gal(b1-3)GlcNAc
Outline: as §1

[14] = biological target: Fuc(a1-2)[GalNAc(a1-3)]Gal(b1-3)GlcNAc(b1-2)Man(a1-3)[Fuc(a1-2)[GalNAc(a1-3)]Gal(b1-3)GlcNAc(b1-2)Man(a1-6)]Man(b1-4)GlcNAc(b1-4)GlcNAc
Outline: as §1

[15] = biological target: Fuc(a1-2)[GalNAc(a1-3)]Gal(b1-3)GlcNAc(b1-2)Man(a1-3)[Fuc(a1-2)[GalNAc(a1-3)]Gal(b1-3)GlcNAc(b1-2)Man(a1-6)]Man(b1-4)GlcNAc(b1-4)[Fuc(a1-6)]GlcNAc
Outline: as §1

[16] = biological target: Fuc(a1-2)[GalNAc(a1-3)]Gal(b1-3)GlcNAc(b1-3)GalNAc
Outline: as §1

[17] = biological target: Fuc(a1-2)[GalNAc(a1-3)]Gal(b1-3)GlcNAc(b1-6)GalNAc
Outline: as §1

[18] = biological target: Fuc(a1-2)[GalNAc(a1-3)]Gal(b1-4)Glc
Outline: as §1

[19] = biological target: Fuc(a1-2)[GalNAc(a1-3)]Gal(b1-4)GlcNAc
Outline: as §1

[20] = biological target: Fuc(a1-2)[GalNAc(a1-3)]Gal(b1-4)GlcNAc(b1-2)Man
Outline: as §1

[21] = biological target: Fuc(a1-2)[GalNAc(a1-3)]Gal(b1-4)GlcNAc(b1-2)Man(a1-3)[Fuc(a1-2)[GalNAc(a1-3)]Gal(b1-4)GlcNAc(b1-2)Man(a1-6)]Man(b1-4)GlcNAc(b1-4)GlcNAc
Outline: as §1

[22] = biological target: Fuc(a1-2)[GalNAc(a1-3)]Gal(b1-4)GlcNAc(b1-2)Man(a1-3)[Fuc(a1-2)[GalNAc(a1-3)]Gal(b1-4)GlcNAc(b1-2)Man(a1-6)]Man(b1-4)GlcNAc(b1-4)[Fuc(a1-6)]GlcNAc
Outline: as §1

[23] = biological target: Fuc(a1-2)[GalNAc(a1-3)]Gal(b1-4)GlcNAc(b1-3)Gal(b1-4)GlcNAc
Outline: as §1

[24] = biological target: Fuc(a1-2)[GalNAc(a1-3)]Gal(b1-4)GlcNAc(b1-3)Gal(b1-4)GlcNAc(b1-3)Gal(b1-4)GlcNAc
Outline: as §1

[25] = biological target: Fuc(a1-2)[GalNAc(a1-3)]Gal(b1-4)GlcNAc(b1-3)GalNAc
Outline: as §1

[26] = biological target: Fuc(a1-2)[GalNAc(a1-3)]Gal(b1-4)GlcNAc(b1-3)[Fuc(a1-2)[GalNAc(a1-3)]Gal(b1-4)GlcNAc(b1-6)]GalNAc
Outline: as §1

[27] = biological target: Fuc(a1-2)[GalNAc(a1-3)]Gal(b1-4)GlcNAc(b1-6)GalNAc
Outline: as §1

[28] = biological target: Fuc(a1-2)[GalNAc(a1-3)]Gal(b1-4)[Fuc(a1-3)]GlcNAc
Outline: as §1

[29] = biological target: Fuc(a1-2)[GalNAc(a1-3)]Gal(b1-4)[Fuc(a1-3)]GlcNAc(b1-3)GalNAc
Outline: as §1

[30] = biological target: Fuc(a1-2)[GalNAc(a1-4)]Gal(b1-4)GlcNAc
Outline: as §1

[31] = biological target: Fuc(a1-2)[GalNAc(b1-3)]Gal
Outline: as §1

[32] = biological target: Fuc(a1-3)GlcNAc
Outline: as §1

[33] = biological target: Fuc(a1-3)[Gal(b1-4)]Glc6S
Outline: as §1

[34] = biological target: Fuc(a1-3)[Gal(b1-4)]GlcNAc
Outline: as §1

[35] = biological target: Fuc(a1-3)[Gal(b1-4)]GlcNAc(b1-2)Man
Outline: as §1

[36] = biological target: Fuc(a1-3)[Gal(b1-4)]GlcNAc(b1-2)Man(a1-3)[Fuc(a1-3)[Gal(b1-4)]GlcNAc(b1-2)Man(a1-6)]Man(b1-4)GlcNAc(b1-4)GlcNAc
Outline: as §1

[37] = biological target: Fuc(a1-3)[Gal(b1-4)]GlcNAc(b1-2)Man(a1-3)[Fuc(a1-3)[Gal(b1-4)]GlcNAc(b1-2)Man(a1-6)]Man(b1-4)GlcNAc(b1-4)[Fuc(a1-6)]GlcNAc
Outline: as §1

[38] = biological target: Fuc(a1-3)[Gal(b1-4)]GlcNAc(b1-3)Gal(b1-3)[Fuc(a1-4)]GlcNAc
Outline: as §1

[39] = biological target: Fuc(a1-3)[Gal(b1-4)]GlcNAc(b1-3)Gal(b1-4)[Fuc(a1-3)]GlcNAc
Outline: as §1

[40] = biological target: Fuc(a1-3)[Gal(b1-4)]GlcNAc(b1-3)Gal(b1-4)[Fuc(a1-3)]GlcNAc(b1-3)Gal(b1-4)[Fuc(a1-3)]GlcNAc
Outline: as §1

[41] = biological target: Fuc(a1-3)[Gal(b1-4)]GlcNAc(b1-3)GalNAc
Outline: as §1

[42] = biological target: Fuc(a1-3)[Gal(b1-4)]GlcNAc(b1-6)GalNAc
Outline: as §1

[43] = biological target: Fuc(a1-3)[Gal(b1-4)]GlcNAc(b1-6)[Gal(b1-3)GlcNAc(b1-3)]Gal(b1-4)Glc
Outline: as §1

[44] = biological target: Fuc(a1-3)[Gal(b1-4)]GlcNAc6S
Outline: as §1

[45] = biological target: Fuc(a1-3)[Gal3S(b1-4)]Glc
Outline: as §1

[46] = biological target: Fuc(a1-3)[Gal3S(b1-4)]GlcNAc
Outline: as §1

[47] = biological target: Fuc(a1-3)[Gal3S(b1-4)]GlcNAc6S
Outline: as §1

[48] = biological target: Fuc(a1-3)[GalNAc(b1-4)]GlcNAc
Outline: as §1

[49] = biological target: Fuc(a1-3)[GalNAc(b1-4)]GlcNAc6S
Outline: as §1

[50] = biological target: Fuc(a1-4)GlcNAc
Outline: as §1

[51] = biological target: Fuc(b1-3)GlcNAc
Outline: as §1

[52] = biological target: Gal(a1-2)Gal
Outline: as §1

[53] = biological target: Gal(a1-3)Gal
Outline: as §1

[54] = biological target: Gal(a1-3)Gal(b1-3)GlcNAc
Outline: as §1

[55] = biological target: Gal(a1-3)Gal(b1-3)GlcNAc(b1-2)Man
Outline: as §1

[56] = biological target: Gal(a1-3)Gal(b1-3)GlcNAc(b1-2)Man(a1-3)[Gal(a1-3)Gal(b1-3)GlcNAc(b1-2)Man(a1-6)]Man(b1-4)GlcNAc(b1-4)GlcNAc
Outline: as §1

[57] = biological target: Gal(a1-3)Gal(b1-3)GlcNAc(b1-3)GalNAc
Outline: as §1

[58] = biological target: Gal(a1-3)Gal(b1-3)GlcNAc(b1-6)GalNAc
Outline: as §1

[59] = biological target: Gal(a1-3)Gal(b1-3)[Fuc(a1-4)]GlcNAc(b1-2)Man(a1-3)[Gal(a1-3)Gal(b1-3)[Fuc(a1-4)]GlcNAc(b1-2)Man(a1-6)]Man(b1-4)GlcNAc(b1-4)GlcNAc
Outline: as §1

[60] = biological target: Gal(a1-3)Gal(b1-4)Glc
Outline: as §1

B1: Epa11 (Candida glabrata) (protein)
chain: MGSSHHHHHHSSGLVPRGSHMASSNAPNYPVGCSPSVGTQLTPGLSLEVYAYPMDGNNGYCWNATYKDPEFPRSGYLKNKLLGKADGVVGPLNFLAKNKDCSPKVDTLPAGFNFPQPITVTNFTMVLFGYLAPKQSGKYTFKLLADDLLLLNLGATNAFDCCNREATKNNLGEFLAYNLWPNQDKNVTVYLEKGVYYPLRLFFNNRDGGSQLDFSYYFNDSPAPLTDFSGMFFSVPDGAECPARI
With B1 the “glycan array binding signal (z-score)” value [1] was 0.729, the “glycan array binding signal (z-score)” value [2] was -0.618 and the “glycan array binding signal (z-score)” value [3] was 0.18. For the same binder, the “glycan array binding signal (z-score)” value [4] was 0.517, the “glycan array binding signal (z-score)” value [5] was 1.23 and the “glycan array binding signal (z-score)” value [6] was -0.081. The “glycan array binding signal (z-score)” value [7] was 0.319, the “glycan array binding signal (z-score)” value [8] was -0.151 and the “glycan array binding signal (z-score)” value [9] was 0.294. The “glycan array binding signal (z-score)” value [10] was -0.146, the “glycan array binding signal (z-score)” value [11] was -0.24 and the “glycan array binding signal (z-score)” value [12] was 0.521. For the same binder, the “glycan array binding signal (z-score)” value [13] was -0.018, the “glycan array binding signal (z-score)” value [14] was -0.435 and the “glycan array binding signal (z-score)” value [15] was 0.53. For the same binder, the “glycan array binding signal (z-score)” value [16] was 1.2, the “glycan array binding signal (z-score)” value [17] was -0.276 and the “glycan array binding signal (z-score)” value [18] was -0.209. For the same binder, the “glycan array binding signal (z-score)” value [19] was 0.226, the “glycan array binding signal (z-score)” value [20] was -0.682 and the “glycan array binding signal (z-score)” value [21] was 0.366. The “glycan array binding signal (z-score)” value [22] was 0.141, the “glycan array binding signal (z-score)” value [23] was -0.643 and the “glycan array binding signal (z-score)” value [24] was 0.345. For the same binder, the “glycan array binding signal (z-score)” value [25] was -0.691, the “glycan array binding signal (z-score)” value [26] was -0.399 and the “glycan array binding signal (z-score)” value [27] was -0.327. For the same binder, the “glycan array binding signal (z-score)” value [28] was -0.101, the “glycan array binding signal (z-score)” value [29] was 1.68 and the “glycan array binding signal (z-score)” value [30] was -0.317. For the same binder, the “glycan array binding signal (z-score)” value [31] was -0.354, the “glycan array binding signal (z-score)” value [32] was -0.649 and the “glycan array binding signal (z-score)” value [33] was -0.02. The “glycan array binding signal (z-score)” value [34] was -0.057, the “glycan array binding signal (z-score)” value [35] was -0.001 and the “glycan array binding signal (z-score)” value [36] was -0.21. The “glycan array binding signal (z-score)” value [37] was 0.653, the “glycan array binding signal (z-score)” value [38] was -0.232 and the “glycan array binding signal (z-score)” value [39] was -0.242. The “glycan array binding signal (z-score)” value [40] was -0.603, the “glycan array binding signal (z-score)” value [41] was 0.07 and the “glycan array binding signal (z-score)” value [42] was -0.246. The “glycan array binding signal (z-score)” value [43] was -0.377, the “glycan array binding signal (z-score)” value [44] was -0.152 and the “glycan array binding signal (z-score)” value [45] was -0.415. For the same binder, the “glycan array binding signal (z-score)” value [46] was -0.608, the “glycan array binding signal (z-score)” value [47] was 0.262 and the “glycan array binding signal (z-score)” value [48] was 0.354. The “glycan array binding signal (z-score)” value [49] was -0.845, the “glycan array binding signal (z-score)” value [50] was -0.209 and the “glycan array binding signal (z-score)” value [51] was -0.407. For the same binder, the “glycan array binding signal (z-score)” value [52] was -0.375, the “glycan array binding signal (z-score)” value [53] was 0.323 and the “glycan array binding signal (z-score)” value [54] was 1.3. For the same binder, the “glycan array binding signal (z-score)” value [55] was 1.54, the “glycan array binding signal (z-score)” value [56] was 1.11 and the “glycan array binding signal (z-score)” value [57] was 0.909. The “glycan array binding signal (z-score)” value [58] was 1.53, the “glycan array binding signal (z-score)” value [59] was 0.465 and the “glycan array binding signal (z-score)” value [60] was 0.246.
